Laboratory results: PubChem BioAssay AID504764 (Drosophila RNAi Screening Center, 2011)
In all, the deposit lists about 22,000 reagents; this is an unselected part of those that have a named target and a result. Over the whole deposit, 403 (1.9%) were called active. 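Unnormalised raw counts per well; ratio z-scores behind the hit calls and whether each hit raises or lowers signal are not deposited.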 The record does not give: the amount of reagent.

- Aim: 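Genes whose knock-down alters Notch-dependent transcription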 (primary screen)
- Cells: Drosophila Kc167 cells
- Knock-down reagent: long dsRNA against Drosophila genes
- Time to read-out: about 5 days (4 days dsRNA, then 24 h after transfection)
- Conditions: transfection of constitutively active membrane-tethered Notch lacking the extracellular domain, read 24 h later
- Measured: 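Firefly luciferase from an E(spl)m3 reporter with active Notch, plus control-promoter and uninduced reporter wells for normalisation; unnormalised counts, duplicate wells a and b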
- Scale: induced reporter light, run 1, well a and induced reporter light, run 1, well b: higher = more light from the Notch target reporter with active Notch; control promoter light, run 1, well a and control promoter light, run 1, well b: higher = more light from the viral control promoter (cell number, transfection, viability); uninduced reporter light, run 1, well a: higher = more light from the Notch target reporter without active Notch
- Call rule: 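Wells with low control signal or poorly matching duplicates excluded; duplicates averaged; per source plate, z beyond ±2 for induced/control log2 ratio or beyond ±1.8 for induced/uninduced marks a hit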
- Calls: active = modifier hit (raised or lowered Notch signal); inactive = not a hit

| Gene | amplicon | induced reporter light, run 1, well a | induced reporter light, run 1, well b | control promoter light, run 1, well a | control promoter light, run 1, well b | uninduced reporter light, run 1, well a | activity call |
| --- | --- | --- | --- | --- | --- | --- | --- |
| CG6171 | DRSC15982 | 1.60e5 | 1.66e5 | 1.24e5 | 1.31e5 | 11255 | inactive |
| CG2993 | DRSC14284 | 69190 | 52605 | 47400 | 36050 | 3980 | inactive |
| CG2993 | DRSC15457 | 83855 | 1.00e5 | 52320 | 50805 | 6415 | inactive |
| Cby | DRSC14591 | 1.45e5 | 1.74e5 | 1.99e5 | 1.86e5 | 10690 | inactive |
| CG6216 | DRSC10606 | 97055 | 84000 | 1.09e5 | 83215 | 4670 | inactive |
| CG9010 | DRSC07320 | 89060 | 93185 | 2.04e5 | 1.63e5 | 8700 | inactive |
| Eig71Ej | DRSC11157 | 1.56e5 | 1.40e5 | 1.76e5 | 1.51e5 | 6025 | inactive |
| gish | DRSC16154 | 2.00e5 | 2.27e5 | 3.02e5 | 3.12e5 | 15730 | inactive |
| Cox17 | DRSC20145 | 1.20e5 | 92290 | 1.03e5 | 1.06e5 | 12570 | inactive |
| Tbcd | DRSC00273 | 1.46e5 | 1.77e5 | 2.19e5 | 2.21e5 | 16200 | inactive |
| CG7695 | DRSC16289 | 2.01e5 | 2.18e5 | 1.94e5 | 2.16e5 | 13910 | inactive |
| KdelR | DRSC03353 | 1.79e5 | 1.80e5 | 94730 | 92575 | 14170 | active |
| CG33095 | DRSC14441 | 1.44e5 | 1.49e5 | 2.04e5 | 1.94e5 | 14490 | inactive |
| Atac3 | DRSC08579 | 1.25e5 | 1.20e5 | 2.22e5 | 2.24e5 | 9085 | inactive |
| Rae1 | DRSC04577 | 1.78e5 | 1.93e5 | 1.42e5 | 1.47e5 | 13950 | inactive |
| CG34452 | DRSC09387 | 1.61e5 | 2.11e5 | 2.64e5 | 2.87e5 | 19205 | inactive |
| Rlb1 | DRSC16826 | 96925 | 77425 | 90495 | 63250 | 5540 | inactive |
| CG1840 | DRSC19806 | 1.65e5 | 1.35e5 | 1.89e5 | 2.26e5 | 11220 | inactive |
| CG11112 | DRSC06038 | 2.18e5 | 2.31e5 | 2.94e5 | 2.43e5 | 18245 | inactive |
| CG34404 | DRSC15335 | 1.80e5 | 1.83e5 | 1.62e5 | 1.75e5 | 16265 | inactive |
| CG34404 | DRSC15978 | 1.66e5 | 1.41e5 | 1.31e5 | 1.39e5 | 12765 | inactive |
| CG2972 | DRSC18250 | 1.54e5 | 1.44e5 | 1.81e5 | 1.39e5 | 8340 | inactive |
| pncr004:X (retired record) | DRSC19295 | 82145 | 95820 | 97605 | 99500 | 7432 | inactive |
| CG12594 | DRSC14532 | 79535 | 76995 | 68395 | 61620 | 5600 | inactive |
| CG34353 | DRSC14493 | 1.94e5 | 1.72e5 | 2.60e5 | 2.38e5 | 17100 | inactive |
| CG34353 | DRSC14517 | 1.19e5 | 2.19e5 | 1.30e5 | 1.16e5 | 8805 | inactive |
| CG34353 | DRSC14563 | 1.23e5 | 1.31e5 | 1.72e5 | 1.61e5 | 12955 | inactive |
| CG34353 | DRSC15837 | 1.11e5 | 94065 | 1.48e5 | 1.38e5 | 10705 | inactive |
| CG6966 | DRSC16156 | 2.21e5 | 2.44e5 | 2.29e5 | 2.27e5 | 19420 | inactive |
| lin-28 | DRSC10261 | 2.73e5 | 1.76e5 | 1.98e5 | 1.93e5 | 9790 | inactive |
| Bhmt | DRSC02079 | 58505 | 37310 | 44360 | 62700 | 3135 | inactive |
| CG18539 | DRSC06766 | 40780 | 38420 | 46485 | 49910 | 4555 | inactive |
| Rbp9 | DRSC00416 | 2.80e5 | 1.79e5 | 2.27e5 | 2.70e5 | 13740 | inactive |
| Rbp9 | DRSC00779 | 1.13e5 | 1.25e5 | 96405 | 1.00e5 | 14510 | inactive |
| CG5828 | DRSC02900 | 1.63e5 | 1.38e5 | 1.96e5 | 1.94e5 | 8360 | inactive |
| CG7848 | DRSC07050 | 32835 | 25225 | 51985 | 34640 | 4145 | inactive |
| IscU | DRSC16572 | 68445 | 72410 | 54675 | 61320 | 6785 | inactive |
| Cap-D3 | DRSC02349 | 1.95e5 | 2.06e5 | 2.31e5 | 2.23e5 | 9640 | inactive |
| Nipsnap | DRSC20169 | 1.87e5 | 1.74e5 | 2.36e5 | 1.84e5 | 12365 | inactive |
| CG11342 | DRSC08175 | 2.52e5 | 3.03e5 | 3.06e5 | 3.38e5 | 15418 | inactive |
| fid | DRSC14885 | 1.09e5 | 83350 | 83220 | 73770 | 10732 | inactive |
| fid | DRSC16464 | 1.04e5 | 95180 | 1.35e5 | 1.23e5 | 10705 | inactive |
| Srp9 | DRSC10973 | 2.39e5 | 1.99e5 | 2.98e5 | 2.55e5 | 14160 | inactive |
| CG31097 | DRSC14666 | 1.20e5 | 1.55e5 | 1.67e5 | 1.63e5 | 12630 | inactive |
| CG10947 | DRSC02111 | 1.99e5 | 2.10e5 | 2.44e5 | 2.33e5 | 16410 | inactive |
| CG14182 | DRSC10181 | 1.23e5 | 1.02e5 | 1.11e5 | 1.12e5 | 9670 | inactive |
| bsf | DRSC02035 | 2.24e5 | 2.52e5 | 2.01e5 | 2.54e5 | 21765 | inactive |
| E(spl)m8-HLH | DRSC16654 | 1.59e5 | 1.72e5 | 1.72e5 | 1.59e5 | 13970 | inactive |
| Ptp99A | DRSC13933 | 1.93e5 | 1.89e5 | 1.91e5 | 1.81e5 | 15195 | inactive |
| Ptp99A | DRSC13939 | 1.52e5 | 1.59e5 | 1.60e5 | 1.64e5 | 12140 | inactive |
| Ptp99A | DRSC14319 | 1.53e5 | 1.35e5 | 1.60e5 | 1.42e5 | 11540 | inactive |
| Ptp99A | DRSC14320 | 1.72e5 | 1.62e5 | 1.83e5 | 1.88e5 | 13460 | inactive |
| Ptp99A | DRSC16803 | 1.64e5 | 1.41e5 | 2.56e5 | 2.32e5 | 16040 | inactive |

Hits, of those listed so far:
| Gene | amplicon | induced reporter light, run 1, well a | induced reporter light, run 1, well b | control promoter light, run 1, well a | control promoter light, run 1, well b | uninduced reporter light, run 1, well a | activity call |
| --- | --- | --- | --- | --- | --- | --- | --- |
| KdelR | DRSC03353 | 1.79e5 | 1.80e5 | 94730 | 92575 | 14170 | active |
